This is one part of the list. Most values lie at the level of the controls, where differences are scatter.

The chains behind the UniProt entries cited, without tags or fusion partners. Where a name states a change or a piece, a line headed by the entry shows the natural chain unless it says otherwise.
UniProt O95372: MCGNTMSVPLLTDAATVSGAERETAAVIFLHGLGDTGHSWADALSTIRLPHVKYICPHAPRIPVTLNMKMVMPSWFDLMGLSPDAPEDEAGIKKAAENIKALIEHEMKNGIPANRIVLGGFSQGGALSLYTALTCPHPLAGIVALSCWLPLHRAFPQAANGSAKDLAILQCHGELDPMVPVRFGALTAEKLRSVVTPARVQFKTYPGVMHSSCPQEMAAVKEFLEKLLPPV
UniProt O75564: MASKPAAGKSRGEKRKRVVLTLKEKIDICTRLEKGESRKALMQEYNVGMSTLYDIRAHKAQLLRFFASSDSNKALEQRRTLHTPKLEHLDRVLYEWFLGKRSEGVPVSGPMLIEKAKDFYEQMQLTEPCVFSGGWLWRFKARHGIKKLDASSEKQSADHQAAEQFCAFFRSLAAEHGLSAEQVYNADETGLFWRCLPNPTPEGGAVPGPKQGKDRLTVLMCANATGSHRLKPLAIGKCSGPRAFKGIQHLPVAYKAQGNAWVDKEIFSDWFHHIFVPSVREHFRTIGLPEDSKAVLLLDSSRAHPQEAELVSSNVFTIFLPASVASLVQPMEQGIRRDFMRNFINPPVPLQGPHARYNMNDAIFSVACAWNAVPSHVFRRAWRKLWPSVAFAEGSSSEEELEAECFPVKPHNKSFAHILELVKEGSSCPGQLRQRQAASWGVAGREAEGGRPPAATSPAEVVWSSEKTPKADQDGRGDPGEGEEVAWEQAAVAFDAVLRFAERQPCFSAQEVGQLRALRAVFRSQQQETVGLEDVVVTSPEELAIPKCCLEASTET
UniProt O96018: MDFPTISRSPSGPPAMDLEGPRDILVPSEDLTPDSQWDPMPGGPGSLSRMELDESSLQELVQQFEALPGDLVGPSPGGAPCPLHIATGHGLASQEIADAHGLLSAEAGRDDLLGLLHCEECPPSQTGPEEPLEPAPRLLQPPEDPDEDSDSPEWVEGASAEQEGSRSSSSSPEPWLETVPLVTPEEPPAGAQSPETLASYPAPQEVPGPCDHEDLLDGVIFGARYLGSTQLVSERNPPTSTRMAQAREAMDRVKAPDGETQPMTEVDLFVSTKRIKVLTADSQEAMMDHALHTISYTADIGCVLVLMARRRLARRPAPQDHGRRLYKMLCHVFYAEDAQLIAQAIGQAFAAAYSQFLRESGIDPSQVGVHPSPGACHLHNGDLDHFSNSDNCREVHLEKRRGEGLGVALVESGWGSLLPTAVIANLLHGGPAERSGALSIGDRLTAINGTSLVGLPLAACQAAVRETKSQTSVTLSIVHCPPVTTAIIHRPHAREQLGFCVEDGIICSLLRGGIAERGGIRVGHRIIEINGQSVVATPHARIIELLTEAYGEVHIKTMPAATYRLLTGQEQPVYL
UniProt O94905: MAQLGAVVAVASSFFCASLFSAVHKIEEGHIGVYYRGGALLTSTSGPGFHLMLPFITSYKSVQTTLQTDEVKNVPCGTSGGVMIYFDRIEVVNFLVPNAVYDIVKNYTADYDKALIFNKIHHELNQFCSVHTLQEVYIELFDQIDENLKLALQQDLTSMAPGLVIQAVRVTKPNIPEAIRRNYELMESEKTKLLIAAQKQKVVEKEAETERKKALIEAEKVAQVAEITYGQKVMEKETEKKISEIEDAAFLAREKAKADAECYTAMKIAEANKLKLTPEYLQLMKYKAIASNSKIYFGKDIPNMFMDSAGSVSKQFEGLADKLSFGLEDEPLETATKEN
UniProt O94941: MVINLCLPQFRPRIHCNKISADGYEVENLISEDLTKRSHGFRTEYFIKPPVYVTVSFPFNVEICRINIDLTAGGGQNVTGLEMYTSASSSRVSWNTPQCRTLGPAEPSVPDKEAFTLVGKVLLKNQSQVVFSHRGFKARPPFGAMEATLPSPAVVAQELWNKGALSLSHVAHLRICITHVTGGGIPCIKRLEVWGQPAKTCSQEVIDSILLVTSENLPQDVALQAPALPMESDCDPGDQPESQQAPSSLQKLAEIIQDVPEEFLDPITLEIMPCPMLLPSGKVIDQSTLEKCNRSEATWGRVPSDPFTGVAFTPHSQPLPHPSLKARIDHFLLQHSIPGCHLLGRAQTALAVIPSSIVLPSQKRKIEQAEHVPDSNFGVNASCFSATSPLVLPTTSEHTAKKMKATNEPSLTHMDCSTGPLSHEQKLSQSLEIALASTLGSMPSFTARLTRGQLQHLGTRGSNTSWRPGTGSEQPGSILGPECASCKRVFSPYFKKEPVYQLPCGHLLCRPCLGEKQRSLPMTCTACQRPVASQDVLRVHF
UniProt O95248: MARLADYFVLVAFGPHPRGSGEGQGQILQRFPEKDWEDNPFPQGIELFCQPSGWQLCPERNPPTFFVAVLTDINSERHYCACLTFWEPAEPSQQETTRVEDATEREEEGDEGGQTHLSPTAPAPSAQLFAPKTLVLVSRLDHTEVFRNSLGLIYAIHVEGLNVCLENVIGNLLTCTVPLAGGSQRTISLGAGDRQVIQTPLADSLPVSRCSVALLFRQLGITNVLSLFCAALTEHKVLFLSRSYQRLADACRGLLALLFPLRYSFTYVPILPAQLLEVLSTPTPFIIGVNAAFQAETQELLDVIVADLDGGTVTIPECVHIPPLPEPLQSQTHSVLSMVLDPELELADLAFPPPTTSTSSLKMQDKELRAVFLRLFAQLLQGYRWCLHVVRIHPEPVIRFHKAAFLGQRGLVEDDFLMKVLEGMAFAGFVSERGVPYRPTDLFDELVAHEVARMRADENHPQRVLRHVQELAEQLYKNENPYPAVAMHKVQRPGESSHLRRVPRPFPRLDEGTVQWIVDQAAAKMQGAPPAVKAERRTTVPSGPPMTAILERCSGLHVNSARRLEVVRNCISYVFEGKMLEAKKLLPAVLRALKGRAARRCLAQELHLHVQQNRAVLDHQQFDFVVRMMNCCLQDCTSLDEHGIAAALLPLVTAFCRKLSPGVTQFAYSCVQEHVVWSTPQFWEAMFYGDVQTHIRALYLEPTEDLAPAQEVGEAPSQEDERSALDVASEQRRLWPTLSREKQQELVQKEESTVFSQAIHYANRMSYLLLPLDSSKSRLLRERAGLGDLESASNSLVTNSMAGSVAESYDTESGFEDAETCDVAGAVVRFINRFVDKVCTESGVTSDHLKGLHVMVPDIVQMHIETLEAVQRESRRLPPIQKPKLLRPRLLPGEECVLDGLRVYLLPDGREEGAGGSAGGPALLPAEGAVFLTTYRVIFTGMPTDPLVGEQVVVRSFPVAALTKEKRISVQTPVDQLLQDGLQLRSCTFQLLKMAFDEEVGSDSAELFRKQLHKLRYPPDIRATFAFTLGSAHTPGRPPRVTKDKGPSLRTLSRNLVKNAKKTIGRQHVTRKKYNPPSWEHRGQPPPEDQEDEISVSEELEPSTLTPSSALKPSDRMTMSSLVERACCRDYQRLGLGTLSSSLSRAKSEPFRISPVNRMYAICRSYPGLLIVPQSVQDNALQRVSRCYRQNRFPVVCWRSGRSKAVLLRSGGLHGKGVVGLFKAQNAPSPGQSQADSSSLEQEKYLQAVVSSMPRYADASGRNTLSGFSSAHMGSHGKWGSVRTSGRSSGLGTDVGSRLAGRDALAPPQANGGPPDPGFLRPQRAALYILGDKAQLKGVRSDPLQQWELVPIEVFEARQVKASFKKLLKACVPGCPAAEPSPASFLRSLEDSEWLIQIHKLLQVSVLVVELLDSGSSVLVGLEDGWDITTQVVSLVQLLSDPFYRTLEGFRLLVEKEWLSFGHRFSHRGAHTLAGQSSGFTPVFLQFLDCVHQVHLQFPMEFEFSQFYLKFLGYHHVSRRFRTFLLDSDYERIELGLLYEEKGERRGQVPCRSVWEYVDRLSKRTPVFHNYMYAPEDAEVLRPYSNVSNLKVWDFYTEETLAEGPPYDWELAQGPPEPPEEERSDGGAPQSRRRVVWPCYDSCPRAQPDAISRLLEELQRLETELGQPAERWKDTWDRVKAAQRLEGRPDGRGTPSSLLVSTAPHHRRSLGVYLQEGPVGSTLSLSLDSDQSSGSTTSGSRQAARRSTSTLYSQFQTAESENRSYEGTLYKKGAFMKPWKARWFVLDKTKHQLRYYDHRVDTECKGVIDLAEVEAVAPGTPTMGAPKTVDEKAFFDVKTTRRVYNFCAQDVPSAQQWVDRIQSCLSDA
UniProt O94927: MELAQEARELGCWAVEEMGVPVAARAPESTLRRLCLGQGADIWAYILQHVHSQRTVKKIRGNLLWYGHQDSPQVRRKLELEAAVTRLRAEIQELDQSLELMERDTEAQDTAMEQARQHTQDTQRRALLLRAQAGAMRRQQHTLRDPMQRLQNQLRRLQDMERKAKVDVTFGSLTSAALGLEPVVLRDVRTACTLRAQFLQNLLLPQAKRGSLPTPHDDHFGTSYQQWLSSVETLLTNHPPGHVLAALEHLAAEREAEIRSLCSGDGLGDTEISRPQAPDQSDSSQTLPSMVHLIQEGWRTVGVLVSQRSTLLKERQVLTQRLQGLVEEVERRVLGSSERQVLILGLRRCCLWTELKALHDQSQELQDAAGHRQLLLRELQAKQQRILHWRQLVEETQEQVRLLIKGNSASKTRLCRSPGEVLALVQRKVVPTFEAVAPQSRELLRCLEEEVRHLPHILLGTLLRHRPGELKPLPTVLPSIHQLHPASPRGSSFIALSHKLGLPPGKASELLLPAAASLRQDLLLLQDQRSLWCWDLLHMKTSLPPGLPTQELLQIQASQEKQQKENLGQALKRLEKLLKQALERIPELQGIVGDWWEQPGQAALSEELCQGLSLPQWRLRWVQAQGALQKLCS
UniProt O76071: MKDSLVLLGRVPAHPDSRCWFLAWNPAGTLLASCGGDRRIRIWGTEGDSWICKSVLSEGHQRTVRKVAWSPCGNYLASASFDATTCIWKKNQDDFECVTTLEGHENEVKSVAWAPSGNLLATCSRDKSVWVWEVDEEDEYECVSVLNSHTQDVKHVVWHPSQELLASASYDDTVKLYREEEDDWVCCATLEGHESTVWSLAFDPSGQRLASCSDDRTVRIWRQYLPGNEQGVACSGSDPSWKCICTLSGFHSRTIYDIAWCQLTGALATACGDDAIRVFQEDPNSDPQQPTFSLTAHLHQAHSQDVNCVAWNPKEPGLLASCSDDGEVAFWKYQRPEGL
UniProt O95872: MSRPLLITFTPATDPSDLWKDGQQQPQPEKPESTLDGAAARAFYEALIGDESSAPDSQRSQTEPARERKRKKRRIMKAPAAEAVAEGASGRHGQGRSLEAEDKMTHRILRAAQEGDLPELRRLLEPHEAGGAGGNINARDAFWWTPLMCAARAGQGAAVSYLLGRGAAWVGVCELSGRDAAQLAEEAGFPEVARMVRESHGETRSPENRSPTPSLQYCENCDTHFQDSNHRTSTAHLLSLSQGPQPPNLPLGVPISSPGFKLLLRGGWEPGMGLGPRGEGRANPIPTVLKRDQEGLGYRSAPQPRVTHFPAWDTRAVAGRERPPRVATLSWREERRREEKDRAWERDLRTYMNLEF
UniProt O75817: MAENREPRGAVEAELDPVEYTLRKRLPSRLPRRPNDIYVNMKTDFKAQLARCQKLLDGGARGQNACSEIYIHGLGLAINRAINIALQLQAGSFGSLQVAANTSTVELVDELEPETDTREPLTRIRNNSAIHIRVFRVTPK
UniProt O94829: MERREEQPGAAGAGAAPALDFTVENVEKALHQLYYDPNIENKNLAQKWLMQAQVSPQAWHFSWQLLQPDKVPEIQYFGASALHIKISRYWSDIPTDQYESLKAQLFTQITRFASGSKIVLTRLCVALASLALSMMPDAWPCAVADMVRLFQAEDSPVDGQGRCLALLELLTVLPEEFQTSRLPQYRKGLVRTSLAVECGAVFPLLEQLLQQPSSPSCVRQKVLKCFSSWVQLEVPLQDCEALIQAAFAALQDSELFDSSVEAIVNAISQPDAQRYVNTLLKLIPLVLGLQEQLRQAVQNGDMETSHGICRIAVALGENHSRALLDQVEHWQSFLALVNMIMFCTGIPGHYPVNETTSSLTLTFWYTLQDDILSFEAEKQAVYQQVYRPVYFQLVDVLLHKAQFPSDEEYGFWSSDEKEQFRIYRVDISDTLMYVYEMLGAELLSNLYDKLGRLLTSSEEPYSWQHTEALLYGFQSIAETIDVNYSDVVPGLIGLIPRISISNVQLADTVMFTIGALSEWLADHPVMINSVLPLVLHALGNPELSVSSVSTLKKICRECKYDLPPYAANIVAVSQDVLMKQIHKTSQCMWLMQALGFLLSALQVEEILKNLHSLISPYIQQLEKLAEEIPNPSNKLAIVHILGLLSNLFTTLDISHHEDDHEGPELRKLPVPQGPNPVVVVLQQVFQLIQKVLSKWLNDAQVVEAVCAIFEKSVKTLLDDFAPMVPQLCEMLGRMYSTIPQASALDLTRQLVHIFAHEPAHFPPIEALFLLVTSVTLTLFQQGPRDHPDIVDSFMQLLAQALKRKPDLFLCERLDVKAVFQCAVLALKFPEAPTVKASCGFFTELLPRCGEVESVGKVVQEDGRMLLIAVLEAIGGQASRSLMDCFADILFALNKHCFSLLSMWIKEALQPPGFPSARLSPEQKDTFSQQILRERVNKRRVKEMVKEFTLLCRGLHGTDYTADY

Compound in the assay: CN[C@@H]1C[C@H]2O[C@@](C)([C@@H]1OC)n1c3ccccc3c3c4c(c5c6ccccc6n2c5c31)C(=O)NC4 [staurosporine]
Nature of the assay: log2 fold change of tryptic peptide abundance, ligand vs vehicle (limited proteolysis) (log2 ratio); higher = more trypsin-susceptible (destabilized). To be noted: ligand concentration: 20 uM; sample: K562 cleared lysate; digestion: 4 min, 22 C (HT-PELSA RT4min, Orbitrap Astral).
For the target “UniProt O95670 (peptide sequence: ASQSQGIQQLLQAEKR, peptide start residue: 2)”, the log2 fold change was -0.0363. Next, “SASH1 (peptide sequence: LGGGLAPDTSK, peptide start residue: 787) (UniProt O94885)”: -0.572; “AGFG2 (peptide sequence: KIWLGLFDAR, peptide start residue: 109) (UniProt O95081)”: -0.192.

As to “SUPT3H (peptide sequence: GIDEDDLLEDKLSGSNNANKR, peptide start residue: 113) (UniProt O75486)”, the log2 fold change is -0.167. For “LYPLA2 (peptide sequence: TYPGVMHSSCPQEMAAVK, peptide start residue: 204) (UniProt O95372)”, the log2 fold change is 0.162. Next, “UniProt O94892 (peptide sequence: ICPENNEVDDHLQDHLENQR, peptide start residue: 77)”: 0.525; “RECQL5 (peptide sequence: TREACEQLAIELSCR, peptide start residue: 268) (UniProt O94762)”: -0.888; “JRK (peptide sequence: VLYEWFLGKR, peptide start residue: 92) (UniProt O75564)”: -0.578. For “TRIO (peptide sequence: LQLTDLLIKPVQR, peptide start residue: 2091) (UniProt O75962)”, the log2 fold change worked out at 0.241. Next, “SFT2D2 (peptide sequence: KVLSGQDTEDR, peptide start residue: 6) (UniProt O95562)”: 0.158; “APBA3 (peptide sequence: RPAPQDHGR, peptide start residue: 315) (UniProt O96018)”: 0.925; “UniProt O95166 (peptide sequence: IGDLDKKK, peptide start residue: 41)”: -0.572. With “PRPF40A (peptide sequence: SMWTEHK, peptide start residue: 144) (UniProt O75400)” the figure was 0.177. With “SEC24A (peptide sequence: AKLPLGLLLHPFK, peptide start residue: 403) (UniProt O95486)” the figure was -1.19; with “CD2BP2 (peptide sequence: KKLVDPVAGSGGPGSR, peptide start residue: 25) (UniProt O95400)”, 0.781. In the case of “ETHE1 (peptide sequence: TLYHSVHEK, peptide start residue: 173) (UniProt O95571)”, the log2 fold change was -0.6. With “CCNK (peptide sequence: AAEPPPPKIPK, peptide start residue: 347) (UniProt O75909)” the figure was -0.104; with “UniProt O75437 (peptide sequence: CEECGEAFNR, peptide start residue: 268)”, 0.117; with “ERLIN2 (peptide sequence: LTPEYLQLMK, peptide start residue: 276) (UniProt O94905)”, 0.118. Next, “RHOBTB3 (peptide sequence: YNVNDKFSFHEVK, peptide start residue: 100) (UniProt O94955)”: 0.569.

Take “UBOX5 (peptide sequence: VIDQSTLEK, peptide start residue: 283) (UniProt O94941)”: the log2 fold change worked out at 0.267.

On to “SBF1 (peptide sequence: GAFMKPWK, peptide start residue: 1773) (UniProt O95248)”, for which the log2 fold change stood at 0.87. Next, “PSMG1 (peptide sequence: AGTEDEEEEEEGRR, peptide start residue: 16) (UniProt O95456)”: -0.107. With “UniProt O94927 (peptide sequence: ELGCWAVEEMGVPVAAR, peptide start residue: 9)” the figure was 0.315; with “SUPT7L (peptide sequence: IVNPEKATEDAKPVK, peptide start residue: 260) (UniProt O94864)”, 0.313; with “KIF20A (peptide sequence: LKEAGNINTSLHTLGR, peptide start residue: 424) (UniProt O95235)”, -0.273. With “CIAO1 (peptide sequence: HVVWHPSQELLASASYDDTVK, peptide start residue: 155) (UniProt O76071)” the figure was -0.289; with “CRYZL1 (peptide sequence: AYTALHYLSHLSPGK, peptide start residue: 132) (UniProt O95825)”, 0.166. As for “UniProt O95872 (peptide sequence: ANPIPTVLKR, peptide start residue: 282)”, the log2 fold change amounted to 0.151.

Take “OFD1 (peptide sequence: QSNLQEVLER, peptide start residue: 898) (UniProt O75665)”: the log2 fold change was -0.19. As to “MTX2 (peptide sequence: RIEQHYFEDR, peptide start residue: 248) (UniProt O75431)”, the log2 fold change was -0.0764. Next, “POP7 (peptide sequence: GAVEAELDPVEYTLRK, peptide start residue: 9) (UniProt O75817)”: 0.306; “IPO13 (peptide sequence: AQLFTQITR, peptide start residue: 103) (UniProt O94829)”: 0.17. Next, “UniProt O75419 (peptide sequence: VQTFSIHFGFK, peptide start residue: 358)”: -0.129; “RSL1D1 (peptide sequence: SDSEDICLFTK, peptide start residue: 90) (UniProt O76021)”: -0.71; “UniProt O95870 (peptide sequence: GVALLRPEPLHR, peptide start residue: 179)”: 0.0847. Next, “NFATC1 (peptide sequence: HSPSTSPR, peptide start residue: 236) (UniProt O95644)”: -0.376.

Source of the values: the supplement of paper PMC12819154, “High-throughput peptide-centric local stability assay extends protein–ligand identification to membrane proteins, tissues and bacteria” (Nature Structural & Molecular Biology, 2025).
